Source: publication PMC4063736
These are yes or no findings as the source states them, for the method shown. For some assays here: Binding seen in cells or lysates may run through a third protein. For some assays here: A result given as binding can be weak or reduced; the word gives no strength. For some assays here: Sequences can lack the tags named with a protein.

B1: LpoA-mCherry expressed from the chromosome (protein, UniProt Q9KUE0 27-603)
chain: CSTQPSSPDVVDITAQPLLTAQTYLMRADASQGNQQNDWLIMALKAAIEENNPDQAQLLIMRLAKQPLTPTQQAQWQLLRAQLLANTEQYQEALEQLSFQANWSLPQVQWQQYHQLRADIFTALDRSFDSTRELVALYGLSSNKDKEALADQIWANLNHYSASKIIKLSTEPDEAQLDGWLQLAIYMKTLGSDLPQLKNTLEKWLAENPQHPAAIYTPKAITDILALEIVKPTNTALLLPLTGKFAKQAQFIRDGFVFAMMNDADRQTNATLTIIDTNAETLESVDAILTSKQIDFVVGPLIKGNIEKLQQFQQSRGQMIPTLALNIPDQIDTTAGACYLALSPEQEVAQAAKHLFTQGYRYPLILAPQNAYGERVVEAFNEEWRRYSKNKVAVNLFGDKRQLQRNINSIFGLQDSQQNIAQMESLLGMGLESQPRSRRDIDAVYIVANSSELTLIKPFIEVAINPDTRPPKLFSNSNSNTGGRQYEDLSGVTYSDIPLLIQPAPSIKEQLTQIWPESSNAERRLQALGMDAYRLMVELPQMKIVEGYTIDGQTGVLSIDEQCVVQREISWAEHGVR
B2: full-length His-PBP1A (enzyme, UniProt Q9KNU5 1-825)
chain: MKFIKRLLVFSLICIILGVTTIFGFYFYVKSDLPDVATLRDVQLQTPMQVFSQDGKLIAQFGEKRRIPLKLEEMPKELIEAVIATEDSRYYEHYGFDPIGITRAAFAVLASGSASQGASTITQQLARNFFLSNEKKVMRKVKEIFIAIHIEQLLSKQEILELYLNKIYLGYRSYGVGAAAQAYFGKEVKDLTLGEIALIAGLPKAPSTMNPIYSVERATNRRNVVLQRMLDEKYITKAEYDAARAEPVLPKYHGAEIELNAPYVAEIARAWMVERYGEEAAYTSGMNVYTTVDSKLQRAANQAAINNLLAYDERHGYRGAEKELWQVNQPAWSSTQLSEYLSNEPTYGDMFPAAVLSVEEKSAQVWVKSYGVQTIAWEDMNWARRFINDDRQGPLPKSANEFLAAGQQIWVRPRTQDGAITAWKLTQVPNANTAFVAMNPENGAVTALVGGFNFVHNKFNRATQSVRQVGSSIKPFIYSAALNKGLTLATLINDAPINQWDESQGTAWRPKNSPPTYTGPTRLRIGLAQSKNVMAVRVLREVGLDETREYLTRFGFKLDQLPRSETIALGAGSLTPVQMAQGFSVFANNGYFVEPFYISRVENPFGNIEFSAEPKVVCHRECSSELDEFAEQDAASPYAPKVISEQNAFLTREMLYSNIWGGGEWSSDTGWNGTGWRAQALKRRDIGGKTGTTNDSKDAWYNGYAPGIVGVAWVGFDDHSRNLGKTAPNRNIEDDVSGAESGGKTALPAWVEFMSLALQDVPVQQKAVPNNIARVRIDRDTGLLTNKLDSSSMFEYFEAGTEPTEYVSEHVNESIYSTSSGEELF

Assays:
[1] = molecular target: 6x His-tagged CsiV expressed from its native chromosomal location (Vibrio cholerae); test: pull-down
[2] = molecular target: truncated CsiV_(31-266)-His (Vibrio cholerae) (UniProt Q9KQW1); test: pull-down; both purified

Binder | binding [1] | binding [2]
B1 | binds | –
B2 | – | no binding (tested: 2.5 µM)
